This assay has as its system L1210 leukemia ip in BDF1 mice, survival T/C. Put plainly: NCI In Vivo Anticancer Drug Screen. Data for tumor model L1210 Leukemia (intraperitoneal) in B6D2F1 (BDF1) mice. To be noted: T/C endpoint: mean survival time, higher T/C = longer survival.
[1] abbreviates: dose: 400.0 mg/kg/injection, schedule: Q04DX002 (ip), vehicle: saline.
[2] abbreviates: dose: 100.0 mg/kg/injection, schedule: Q04DX003 (ip), vehicle: saline with Tween-80.
Where [3] appears, read: dose: 200.0 mg/kg/injection, schedule: Q04DX003 (ip), vehicle: saline with Tween-80.
Setting [4] is: dose: 400.0 mg/kg/injection, schedule: Q04DX003 (ip), vehicle: saline with Tween-80.
Setting [5] is: dose: 400.0 mg/kg/injection, schedule: Q01DX001 (ip), vehicle: saline.
Setting [6] is: dose: 400.0 mg/kg/injection, schedule: Q04DX002 (ip), vehicle: saline with Tween-80.
Where [7] appears, read: dose: 100.0 mg/kg/injection, schedule: Q04DX003 (ip), vehicle: Klucel (hydroxypropylcellulose) (HPC).
Setting [8] is: dose: 400.0 mg/kg/injection, schedule: Q04DX003 (ip), vehicle: Klucel (hydroxypropylcellulose) (HPC).

The list shows only some results of the screen, not a fair sample: it is rich in T/C values a quarter to a half above the control, in often repeated tests (any T/C) and in doses without a T/C. Further doses and runs are listed elsewhere. T/C: endpoint of the treated group in % of that of the vehicle group. Some doses have a count of surviving animals in place of a T/C: the source holds a T/C of zero for them, seemingly a mark for toxic or unscored doses. Some survivor counts are full or nearly so, which does not show that the dose was tolerated: the source hardly ever lists a survival T/C far under the control, and the zero likely stands for such cases as well. Survivors were counted at the toxicity check, usually on the fifth day, unless a day is given; later deaths do not show. Schedules are NCI's codes, taken here to give the interval after Q, in days (D) or hours (H), and the number of doses after X. Some schedule codes hold Z or #, which are not explained here. Where survival is the endpoint, the PubChem record calls one and a half times the control and up active, and a quarter to a half above the control has no call in these data; cut-offs in other NCI protocols can differ. Some T/C values are followed by the survivors on the day toxicity was checked, most often the fifth; where none is given, no animal had died by that day.

Turning to `CC[CH2][Pb]([CH2]CC)([CH2]CC)[O]C(=O)C(Cl)(Cl)Cl`, the survivor count runs as follows: (dose: 12.5 mg/kg/injection, schedule: Q01DX009 (ip), vehicle: Klucel (hydroxypropylcellulose) (HPC)) 6 of 6; (dose: 18.0 mg/kg/injection, schedule: Q01DX009 (ip), vehicle: Klucel (hydroxypropylcellulose) (HPC)) 2 of 6; (dose: 25.0 mg/kg/injection, schedule: Q04DX002 (ip), vehicle: Klucel (hydroxypropylcellulose) (HPC)) 1 of 3; (dose: 28.0 mg/kg/injection, schedule: Q01DX009 (ip), vehicle: Klucel (hydroxypropylcellulose) (HPC)) 0 of 6; (dose: 40.0 mg/kg/injection, schedule: Q01DX009 (ip), vehicle: Klucel (hydroxypropylcellulose) (HPC)) 0 of 6; (dose: 50.0 mg/kg/injection, schedule: Q04DX002 (ip), vehicle: Klucel (hydroxypropylcellulose) (HPC)) 0 of 3. The survivor count was 3 of 3 (dose: 100.0 mg/kg/injection, schedule: Q04DX002 (ip), vehicle: Klucel (hydroxypropylcellulose) (HPC)); 2 of 3 (dose: 200.0 mg/kg/injection, schedule: Q04DX002 (ip), vehicle: Klucel (hydroxypropylcellulose) (HPC)); 0 of 3 (dose: 400.0 mg/kg/injection, schedule: Q04DX002 (ip), vehicle: Klucel (hydroxypropylcellulose) (HPC)).
On to `CC(=O)OC1C(CO)OC2C1Oc1nc(=N)c(F)cn12` (stereo not given), for which the survivor count by setting is: (dose: 200.0 mg/kg/injection, schedule: Q04DX002 (ip), vehicle: saline) 3 of 3; under setting [1], 3 of 3.
`N#CC1CCCC1=O` (stereo not given): the survivor count reads like this: under setting [2], 0 of 6; under setting [3], 0 of 6; under setting [4], 0 of 6.
As for `CNC1(C)CCC(C)C1` (stereo not given) (tested in a mixture with another compound), the survivor count is recorded as 6 of 7 (dose: 113.0 mg/kg/injection, schedule: Q01DX Z (ip), vehicle: methylcellulose (MC)) and 6 of 7 (dose: 225.0 mg/kg/injection, schedule: Q01DX Z (ip), vehicle: methylcellulose (MC)).
For the compound `CN(C)CNC=O`, the survivor count is recorded as 6 of 6 (dose: 200.0 mg/kg/injection, schedule: Q01DX009 (ip), vehicle: saline) and 5 of 6 (dose: 400.0 mg/kg/injection, schedule: Q01DX009 (ip), vehicle: saline).
For `CCOC(=O)N(OC(C)=O)P(=O)(N1CC1(C)C)N1CC1(C)C` (stereo not given), under setting [1], the survivor count was 1 of 3.
On to `CNCCc1ccccc1`, for which the survivor count under setting [5] is given as 0 of 6.
For `CC(C)C1CCC(NC(=O)Nc2ccccc2)CC1` (stereo not given), the survivor count is 6 of 6 under setting [3] and 0 of 6 under setting [4].
With `COC(OC)c1nc(N)nc(N)c1-c1ccccc1`, the T/C is 127 % of control (dose: 200.0 mg/kg/injection, schedule: Q01DX008 (ip), vehicle: Klucel (hydroxypropylcellulose) (HPC)) and 136 % of control (dose: 400.0 mg/kg/injection, schedule: Q01DX008 (ip), vehicle: Klucel (hydroxypropylcellulose) (HPC)).
With `C[n+]1cc2c3ccccc3c(N)cc2c2ccccc21`, the T/C runs as follows: (dose: 12.5 mg/kg/injection, schedule: Q01DX009 (ip), vehicle: water) 128 % of control [5 of 6 alive]; (dose: 25.0 mg/kg/injection, schedule: Q01DX009 (ip), vehicle: water) 131 % of control; (dose: 25.0 mg/kg/injection, schedule: Q04DX003 (ip), vehicle: water) 126 % of control; (dose: 50.0 mg/kg/injection, schedule: Q04DX003 (ip), vehicle: water) 129 % of control [5 of 6 alive]. Moreover, the survivor count is given as 4 of 6 (dose: 50.0 mg/kg/injection, schedule: Q01DX009 (ip), vehicle: water); 3 of 6 (dose: 75.0 mg/kg/injection, schedule: Q01DX009 (ip), vehicle: water); 5 of 6 (dose: 100.0 mg/kg/injection, schedule: Q04DX003 (ip), vehicle: water); 4 of 6 (dose: 200.0 mg/kg/injection, schedule: Q04DX003 (ip), vehicle: water); 1 of 6 (dose: 400.0 mg/kg/injection, schedule: Q04DX003 (ip), vehicle: water).
In the case of `COC(=O)C[CH2][Pb]([c]1ccccc1)([c]1ccccc1)[c]1ccccc1`, under setting [6], the survivor count is given as 2 of 3.
Take `CC1(C)C/C(=N/O)C/C(=N\O)C1`: under setting [7], the survivor count is given as 0 of 6.
As for `FC(F)(F)C(F)(F)c1nc2nc(Cl)c(Cl)nc2[nH]1`, the survivor count is reported as 1 of 6 (dose: 200.0 mg/kg/injection, schedule: Q01DX009 (ip), vehicle: other); 3 of 6 (dose: 300.0 mg/kg/injection, schedule: Q04DX003 (ip), vehicle: other); 3 of 6 (dose: 400.0 mg/kg/injection, schedule: Q04DX003 (ip), vehicle: other). In addition, where the note is “dose: 200.0 mg/kg/injection, schedule: Q04DX003 (ip), vehicle: other”, the T/C is 131 % of control.
As to `N#CCCC1C2CCC(C2)C1C#N` (stereo not given), the survivor count (dose: 25.0 mg/kg/injection, schedule: Q04DX003 (ip), vehicle: Klucel (hydroxypropylcellulose) (HPC)) is 1 of 6; the survivor count (dose: 50.0 mg/kg/injection, schedule: Q04DX003 (ip), vehicle: Klucel (hydroxypropylcellulose) (HPC)) is 0 of 6; the survivor count under setting [7] was 0 of 6; the survivor count (dose: 200.0 mg/kg/injection, schedule: Q04DX003 (ip), vehicle: Klucel (hydroxypropylcellulose) (HPC)) was 0 of 6; the survivor count under setting [8] is 0 of 6.
On to `CCN(CC)CCNc1cc(C)nc(/N=C(\N)Nc2ccc(OCc3ccccc3)cc2)n1`, for which the survivor count (dose: 25.0 mg/kg/injection, schedule: Q01DX009 (ip), vehicle: saline with Tween-80) is listed as 3 of 6.
On to `NC(N)=N/N=C\c1c[nH]c2ccccc12`, for which, where the note is “dose: 120.0 mg/kg/injection, schedule: Q01DX Z (ip), vehicle: carboxymethylcellulose (CMC)”, the survivor count is 2 of 6.
On to `NC1CCCCCCCC1`, for which the survivor count (dose: 300.0 mg/kg/injection, schedule: Q01DX001 (ip), vehicle: acetone) is listed as 0 of 6.
Turning to `CN(C)c1ccnc(SCc2ccc(Cl)cc2Cl)n1`, the survivor count is 6 of 6 (dose: 100.0 mg/kg/injection, schedule: Q01DX Z (ip), vehicle: methylcellulose (MC)) and 5 of 6 (dose: 200.0 mg/kg/injection, schedule: Q01DX Z (ip), vehicle: methylcellulose (MC)).
With `CC(C)C(Cl)C(=O)O` (stereo not given), where the note is “dose: 300.0 mg/kg/injection, schedule: Q01DX001 (ip), vehicle: saline”, the survivor count is reported as 1 of 6.
Take `CCOC(=O)c1c(C)nc(C)c(C(=O)OCC)c1-c1ccc(N(C)C)cc1`: the survivor count was 3 of 6 under setting [2]; 0 of 3 (dose: 160.0 mg/kg/injection, schedule: Q04DX002 (ip), vehicle: saline with Tween-80); 0 of 6 under setting [3]; 0 of 3 under setting [6]; 0 of 6 under setting [4].
On to `OC1(C#[C][Hg][C]#CC2(O)CCCCC2)CCCCC1`, for which the survivor count under setting [8] is 0 of 6.
For the compound `O=C(O)C(=C(c1ccccc1)c1ccccc1)c1cccc2ccccc12`, the survivor count runs as follows: (dose: 200.0 mg/kg/injection, schedule: Q01DX009 (ip), vehicle: Klucel (hydroxypropylcellulose) (HPC)) 4 of 6; (dose: 400.0 mg/kg/injection, schedule: Q01DX009 (ip), vehicle: Klucel (hydroxypropylcellulose) (HPC)) 0 of 6.
As for `CCOC(=O)NNc1ccccc1`, the survivor count under setting [5] is 3 of 6.
Regarding `C=CC(C)C/C(CC)=N\NC(N)=O` (stereo not given), for the setting “dose: 300.0 mg/kg/injection, schedule: Q01DX001 (ip), vehicle: other”, the survivor count is 3 of 6.

(Values after PubChem BioAssay AID248 (DTP/NCI, 2004).)
